Patent US10864296B2, “Polypeptide and hyaluronic acid coatings” (INSTITUT NATIONAL DE LA SANTE ET DE LA RECHERCHE MEDICALE …, priority 2017, dated 2020)
Some results were stated once for a whole list of compounds, not compound by compound.

Test system: S. aureus
Experiment: Minimal inhibitory concentration (MIC) of PAR in solution, 24 h in MHB medium with S. aureus
Assay type: cell-based, Staphylococcus aureus
Conditions: PAR 0.01 mg·mL^−1; hydrochloride
Protocol: PAR with 10, 30, 100 or 200 arginine residues per chain were tested. Each PAR was incubated 24 h at 37° C. in 300 μL of MHB medium with S. aureus (A620=0.001). Pathogen growth of 0% corresponds to medium with antibiotics (and without PAR) and 100% to medium without PAR. Each value corresponds to the mean value of 3 individual experiments (3 samples per experiment and condition) and error bars correspond to standard deviations. For each concentration, the first column represents the normalized pathogen growth of S. aureus for PAR10, the 2nd column for PAR30, the third column for PAR100 and the fourth for PAR200.
Staphylococcus aureus (S. aureus, ATCC 25923) strains were used to assess the antibacterial properties of the test samples. Bacterial strain was cultured aerobically at 37° C. in a Mueller Hinton Broth (MHB) medium (Merck, Germany), pH 7.4. One colony was transferred to 10 mL of MHB medium and incubated at 37° C. for 20 h, to provide a final density of 10^6 CFU·mL^−1. To obtain bacteria in the mid logarithmic phase of growth, the absorbance at 620 nm of overnight culture was adjusted of 0.001.
In the following the inventors of the present invention wanted to further elucidate the underlying mechanism that confer to the coatings of the invention the strong inhibitory property on the surface and in the supernatant. As an example the (PAR30/HA)24 coating was further investigated. Accordingly, the minimal inhibitory concentration (MIC) of PAR in solution was determined using bacterial assay as described in Experimental Section. […] Finally for PAR at concentrations of 0.01 mg·mL^−1, inhibition of 100% was shown only for PAR30. Longer or shorter PAR chains (PAR10, PAR100 or PAR200) inhibits only partially (less than 40%) S. aureus growth. […] This reasoning is valid when PAR concentration values are expressed in mass (mg·mL^−1) thus it is related to the number of arginine monomers. […]

Row | Substance | S. aureus growth inhibition in solution
1 | poly(I-arginine hydrochloride) [PAR10] | less than 40%
2 | poly(I-arginine hydrochloride) [PAR100] | less than 40%
3 | poly(I-arginine hydrochloride) [PAR200] | less than 40%
